According to PubChem BioAssay AID588590 (National Center for Advancing Translational Sciences (NCATS), 2011):
In all, about 390,000 compounds went through this assay and about 4,000 (1%) were called active. This list was built around the results that the source calls inconclusive (neither active nor inactive); the mix of calls is not that of the screen. The call rests on the fitted dose curve; in most records, active means well fitted inhibition curve with a large enough effect; inconclusive means small, poorly fitted or top-dose-only effect, or another doubt; inactive means no such curve, though single readings can be large or run the other way. A potency beside an inconclusive call is a rough fit, not a confirmed value.

By UniProt entry, the sequences of proteins in these tests, tags left out. Where a name states a change or a piece, a line headed by the entry shows the natural chain unless it says otherwise.
UniProt Q9UNA4: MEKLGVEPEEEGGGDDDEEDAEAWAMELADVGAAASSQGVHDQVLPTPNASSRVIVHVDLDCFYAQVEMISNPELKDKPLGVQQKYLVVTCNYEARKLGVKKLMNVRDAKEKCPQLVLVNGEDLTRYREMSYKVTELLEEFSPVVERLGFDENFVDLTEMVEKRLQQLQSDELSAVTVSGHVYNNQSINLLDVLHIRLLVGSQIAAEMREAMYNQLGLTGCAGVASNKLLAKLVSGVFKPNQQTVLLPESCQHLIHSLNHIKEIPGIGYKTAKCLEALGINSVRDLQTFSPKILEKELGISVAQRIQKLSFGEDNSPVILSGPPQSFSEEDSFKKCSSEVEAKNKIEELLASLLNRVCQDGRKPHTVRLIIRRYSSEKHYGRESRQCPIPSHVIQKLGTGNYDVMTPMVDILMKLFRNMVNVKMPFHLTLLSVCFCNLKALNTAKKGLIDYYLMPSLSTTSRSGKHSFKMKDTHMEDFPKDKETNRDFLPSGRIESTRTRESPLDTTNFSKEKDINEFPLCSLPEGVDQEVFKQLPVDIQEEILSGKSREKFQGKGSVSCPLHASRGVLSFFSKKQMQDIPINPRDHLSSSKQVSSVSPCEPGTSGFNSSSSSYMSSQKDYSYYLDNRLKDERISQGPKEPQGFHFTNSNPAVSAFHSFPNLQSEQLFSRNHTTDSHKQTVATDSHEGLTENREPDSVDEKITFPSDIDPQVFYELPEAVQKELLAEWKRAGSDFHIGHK

target: DNA polymerase iota (Homo sapiens) (UniProt Q9UNA4); experiment: qHTS for Inhibitors of Polymerase Iota; conditions: Pol iota fluorescent replication assay, 10 min; series mostly up to 115 µM; activity, negative = inhibition: at the top concentration
In short: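 Fluorescent replication assay read twice, at 0 min and 10 min after adding 50 nM (final) substrate. Enzyme (10 nM) and compounds were first incubated 15 min at room temperature; enzyme-free buffer wells were negative controls.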
Potency means the concentration at half of the fitted maximal effect.

Row | Compound | activity, negative = inhibition | Potency
1 | Nc1ccc2c(c1)nc(Cc1ccccc1)n2CCO | inactive: 8.66% | –
2 | O=C1CSC(=NC2CCCCC2)N1 | – | inconclusive: 12.6 µM [inhibitor, partial curve, poor fit]
3 | CCOc1ccc(/C=C2\SC(=S)N(CC(=O)Nc3ccccn3)C2=O)cc1 | – | inconclusive: 79.4 µM [inhibitor, single point]
4 | COc1ccc2c(=O)c3c(=O)n(Cc4ccco4)c(-c4ccco4)nc3oc2c1 | – | active: 20 µM
5 | CCn1c(NC(=O)C2CCCCC2)nc2ccccc21 | – | inconclusive: 3.98 µM [inhibitor, full curve, poor fit]
6 | COc1ccc(/C(O)=C/C(=O)C(=O)NNC(=O)C(O)(c2ccccc2)c2ccccc2)cc1 | – | inconclusive: 14.1 µM [inhibitor, full curve, poor fit]
7 | Cc1noc(/C=C/c2ccco2)c1S(=O)(=O)N1CCC(C(=O)N(C)Cc2ccccc2)CC1 | – | inconclusive: 22.4 µM [inhibitor, partial curve, poor fit]
8 | Cc1ccc(-c2nn3c(C)nnc3c3ccccc23)cc1S(=O)(=O)NCC(C)O (stereo unspecified) | inactive: 3.08% | –
9 | O=C(COC(=O)CCC1CCCC1)Nc1ccccc1Br | inactive: 4.12% | –
10 | CCOc1ccccc1NC(=O)C(=O)Nc1ccc2nc3n(c(=O)c2c1)CCCCC3 | inactive: 19.1% | –
11 | CCOC(=O)C1Nc2ccc(C(F)(F)F)cc2C2c3ccccc3CC12 (stereo unspecified) | inactive: 30% | –
12 | Cc1ccc(SCCC(=O)Nc2ccccc2C(=O)NC(C)C)cc1 | inactive: 15.2% | –
13 | CC1(C)Cc2noc(N)c2C(C)(C)N1OC(=O)c1scc2c1OCCO2 | – | inconclusive: 31.6 µM [inhibitor, single point]
14 | COc1ccc(CC(=O)Nc2sccc2C#N)cc1S(=O)(=O)N1CCOCC1 | – | inconclusive: 22.4 µM [inhibitor, single point]
15 | N=c1c(S(=O)(=O)c2ccc(Br)cc2)cc2c(=O)n3ccccc3nc2n1Cc1ccco1 | – | inconclusive: 1.58 µM [inhibitor, full curve, poor fit]
16 | COc1cc(NC(=O)CSc2nc3nc(C)c(Cc4ccccc4Cl)c(C)n3n2)cc(OC)c1 | – | inconclusive: 28.2 µM [inhibitor, partial curve, poor fit]
17 | CC1CCN(C(c2nnnn2CCc2ccccc2)C(C)C)CC1 (stereo unspecified) | – | inconclusive: 15.8 µM [inhibitor, full curve, poor fit]
18 | Cc1ccc(NC(=O)COc2cccc(/C=C3\SC(=S)N(CCC(=O)O)C3=O)c2)cc1Cl | – | active: 50.1 µM
19 | COc1cc(/C=C2\C(=N)N3N=C(C(C)C)SC3=NC2=O)ccc1OCCOc1ccc(NC(C)=O)cc1 | inactive: -13.2% | –
20 | COc1ccc(NC(=O)/C(Cl)=C(/Cl)S(=O)(=O)Cc2ccc(C)cc2)cn1 | – | inconclusive: 12.6 µM [inhibitor, full curve, poor fit]
21 | COc1ccc(C(=O)Nc2ccc(S(=O)(=O)Nc3onc(C)c3C)cc2)cc1 | – | inconclusive: 112 µM [inhibitor, partial curve, poor fit]

Copied from the list.
In Potency, `CC1(C)Cc2noc(N)c2C(C)(C)N1OC(=O)c1scc2c1OCCO2` shows inconclusive: 31.6 µM [inhibitor, single point]
In activity, negative = inhibition, `Nc1ccc2c(c1)nc(Cc1ccccc1)n2CCO` shows inactive: 8.66%

(list continues)

Row | Compound | activity, negative = inhibition | Potency
22 | COC(=O)C(CCSC)Nc1ncnc2onc(-c3ccc(F)cc3)c12 (stereo unspecified) | inactive: -2.77% | –
23 | COc1cc(/C=C(/C(=O)c2cccs2)c2nc3ccccc3[nH]2)ccc1O | – | inconclusive: 10 µM [inhibitor, partial curve]
24 | Cc1ccc(-c2cc(C(=O)N/N=C/c3c(C)nn(C)c3C)c3ccccc3n2)cc1C | – | active: 22.4 µM
25 | C#CCOCCOCCOCCNc1nc(N2CCN(C(=O)CCCCCCCCCCNC(=O)[C@H](CCCCN)n3cc(CCO)nn3)CC2)nc(N2CCN(C(=O)CCCCCCCCCCNC(=O)[C@H](CCCCN)n3cc(C[C@@H](C)CC)nn3)CC2)n1 | – | inconclusive: 28.2 µM [inhibitor, full curve, poor fit]
26 | COc1ccccc1CNC(=O)CSc1ncc(S(=O)(=O)c2ccc(C)c(Cl)c2)c(=O)[nH]1 | – | inconclusive: 89.1 µM [inhibitor, single point]
27 | Cc1[nH]c2ccc(C(=O)O)cc2c1C | – | inconclusive: 89.1 µM [inhibitor, single point]
28 | COc1ccc(CNC(=O)CCS(=O)(=O)c2ccc(Br)cc2)cc1 | – | inconclusive: 79.4 µM [inhibitor, partial curve, poor fit]
29 | COc1cc(-c2nc(SCC(=O)Nc3ccc4c(c3)OCO4)c(-c3ccccc3)[nH]2)cc(OC)c1OC | – | inconclusive: 89.1 µM [inhibitor, single point]
30 | CC(C(=O)Nc1cc([N+](=O)[O-])ccc1Cl)N1CCN(c2ccc(O)cc2)CC1 (stereo unspecified) | – | inconclusive: 100 µM [inhibitor, partial curve, poor fit]
31 | CNC(=O)C1CCC(Cn2c(=O)c3sccc3n(CC(=O)N3CCCC(C)C3)c2=O)CC1 (stereo unspecified) | – | inconclusive: 11.2 µM [inhibitor, partial curve, poor fit]
32 | Cc1ccc(-n2c(SCC(=O)O)nc3sc4c(c3c2=O)C(C)CCC4)cc1 (stereo unspecified) | – | inconclusive: 20 µM [inhibitor, single point]
33 | Oc1ccc(Br)cc1C1C=C(c2ccc3c(c2)OCO3)NC(c2ccc(Br)cc2)N1 (stereo unspecified) | – | inconclusive: 50.1 µM [inhibitor, partial curve]
34 | COCCCNc1nc2ccccc2nc1NS(=O)(=O)c1ccc(C)cc1 | – | inconclusive: 12.6 µM [inhibitor, partial curve]
35 | COc1cccc(CN(C)Cc2cc(=O)oc3c(C)c(C)ccc23)c1 | inactive: -5.31% | –
36 | CC(=O)N1N=C(c2ccc(C)cc2)OC1c1ccc(Br)cc1 (stereo unspecified) | inactive: 62.2% | –
37 | COc1c(Cl)cc(Cl)cc1C(=O)Nc1cccc(-c2nc3ccccc3o2)c1C | inactive: -0.896% | –
38 | COc1ccc(CCN2C(=O)N(c3cccc(C)c3)C(=O)C2CC(=O)Nc2ccccc2)cc1OC (stereo unspecified) | inactive: -10.9% | –
39 | CCN(CC)S(=O)(=O)c1ccc(NN=c2c(=O)c3ccccc3c2=O)cc1 | – | inconclusive: 39.8 µM [inhibitor, single point]
40 | Cc1ccc(C)c(NC(c2ccccc2)c2nnc(-c3ccccc3F)o2)c1 (stereo unspecified) | – | inconclusive: 50.1 µM [inhibitor, partial curve, poor fit]
41 | Cc1noc(C)c1COc1cccc(C(=O)OCC(=O)NC(=O)c2ccc(OC(F)F)cc2)c1 | – | inconclusive: 112 µM [inhibitor, single point]
